Measurements reported in PubChem BioAssay AID1224828 (NIAID, 2016).
Purpose: 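Regulators linking TLR4 signalling to p65 nuclear translocation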 (primary screen). System: mouse RAW264.7 G9 macrophage reporter cells (GFP-p65, Tnf promoter-mCherry). Reagents: siRNA pool against mouse genes, 100 nM. Time to read-out: 2 days siRNA transfection, then 40 min LPS before fixation. Conditions: LPS (Salmonella minnesota R595) at 10 ng/ml. Read-out: 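Microscopy ratio of nuclear to perinuclear-ring GFP-p65 signal, scaled to the plate median; gene score is the average of two replicate robust z-scores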. Reading the numbers: p65 translocation robust z-score: higher = more nuclear NF-kappaB p65 after LPS than the plate median; nuclear/cytoplasmic p65 ratio: higher = more nuclear NF-kappaB p65. Rule for the call: 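Active if robust z is above 3.3 (negative regulators) or below -1.56, the Tlr4 control median (positive regulators); activity score 50 or more; control wells not called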. Meaning of the calls: active = hit (p65 shift raised or lowered); inactive = no clear change.
The deposit covers about 17,000 reagents; below is a part drawn at random. Of all reagents, 762 (4.5%) are marked active. 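Active calls include both raised and lowered p65 entry, mostly lowered; wells with fewer than 50 cells lack a z-score.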 The raw values are shown without normalisation. No sequences are given here.

Aldh1a1 → p65 translocation robust z-score: 0.1; nuclear/cytoplasmic p65 ratio, rep 1: 1.57; nuclear/cytoplasmic p65 ratio, rep 2: 1.7; low cell count flag: enough cells to score; Call: inactive
Or5b121 → p65 translocation robust z-score: 0.65; nuclear/cytoplasmic p65 ratio, rep 1: 1.74; nuclear/cytoplasmic p65 ratio, rep 2: 1.48; low cell count flag: enough cells to score; Call: inactive
Immp2l → nuclear/cytoplasmic p65 ratio, rep 1: 1.78; nuclear/cytoplasmic p65 ratio, rep 2: 1.48; low cell count flag: fewer than 50 cells per well; well left out of scoring; Call: inactive
Tgif1 → p65 translocation robust z-score: -0.71; nuclear/cytoplasmic p65 ratio, rep 1: 1.36; nuclear/cytoplasmic p65 ratio, rep 2: 1.47; low cell count flag: enough cells to score; Call: inactive
Bco2 → p65 translocation robust z-score: 1.75; nuclear/cytoplasmic p65 ratio, rep 1: 1.68; nuclear/cytoplasmic p65 ratio, rep 2: 1.77; low cell count flag: enough cells to score; Call: inactive
Bloc1s3 → p65 translocation robust z-score: 0.43; nuclear/cytoplasmic p65 ratio, rep 1: 1.45; nuclear/cytoplasmic p65 ratio, rep 2: 1.58; low cell count flag: enough cells to score; Call: inactive
Il1f10 → nuclear/cytoplasmic p65 ratio, rep 1: 1.35; nuclear/cytoplasmic p65 ratio, rep 2: 1.3; low cell count flag: fewer than 50 cells per well; well left out of scoring; Call: inactive

Continued, starting with the last 2 of the part before.
Bloc1s3 → p65 translocation robust z-score: 0.43; nuclear/cytoplasmic p65 ratio, rep 1: 1.45; nuclear/cytoplasmic p65 ratio, rep 2: 1.58; low cell count flag: enough cells to score; Call: inactive
Il1f10 → nuclear/cytoplasmic p65 ratio, rep 1: 1.35; nuclear/cytoplasmic p65 ratio, rep 2: 1.3; low cell count flag: fewer than 50 cells per well; well left out of scoring; Call: inactive
Kif12 → p65 translocation robust z-score: -0.58; nuclear/cytoplasmic p65 ratio, rep 1: 1.46; nuclear/cytoplasmic p65 ratio, rep 2: 1.25; low cell count flag: enough cells to score; Call: inactive
Trpm5 → p65 translocation robust z-score: -0.2; nuclear/cytoplasmic p65 ratio, rep 1: 1.47; nuclear/cytoplasmic p65 ratio, rep 2: 1.49; low cell count flag: enough cells to score; Call: inactive
Zdhhc3 → nuclear/cytoplasmic p65 ratio, rep 1: 1.53; nuclear/cytoplasmic p65 ratio, rep 2: 1.03; low cell count flag: fewer than 50 cells per well; well left out of scoring; Call: inactive
Ctla4 → p65 translocation robust z-score: -0.75; nuclear/cytoplasmic p65 ratio, rep 1: 1.36; nuclear/cytoplasmic p65 ratio, rep 2: 1.29; low cell count flag: enough cells to score; Call: inactive
Mppe1 → p65 translocation robust z-score: 2.26; nuclear/cytoplasmic p65 ratio, rep 1: 2.13; nuclear/cytoplasmic p65 ratio, rep 2: 1.95; low cell count flag: enough cells to score; Call: inactive
Cacna2d3 → p65 translocation robust z-score: -1.01; nuclear/cytoplasmic p65 ratio, rep 1: 1.42; nuclear/cytoplasmic p65 ratio, rep 2: 1.64; low cell count flag: enough cells to score; Call: inactive
Gm9946 → p65 translocation robust z-score: -0.17; nuclear/cytoplasmic p65 ratio, rep 1: 1.41; nuclear/cytoplasmic p65 ratio, rep 2: 1.49; low cell count flag: enough cells to score; Call: inactive
